According to article PMC6033098:
Results are given in words; binding and its absence hold for the method and conditions named. Binding seen in cells or lysates may run through a third protein. Some entries that bind do so weakly or less than the wild type.

The chains behind the UniProt entries cited, without tags or fusion partners. Residues count along the entry.
UniProt Q4U9M9, residues 20-873: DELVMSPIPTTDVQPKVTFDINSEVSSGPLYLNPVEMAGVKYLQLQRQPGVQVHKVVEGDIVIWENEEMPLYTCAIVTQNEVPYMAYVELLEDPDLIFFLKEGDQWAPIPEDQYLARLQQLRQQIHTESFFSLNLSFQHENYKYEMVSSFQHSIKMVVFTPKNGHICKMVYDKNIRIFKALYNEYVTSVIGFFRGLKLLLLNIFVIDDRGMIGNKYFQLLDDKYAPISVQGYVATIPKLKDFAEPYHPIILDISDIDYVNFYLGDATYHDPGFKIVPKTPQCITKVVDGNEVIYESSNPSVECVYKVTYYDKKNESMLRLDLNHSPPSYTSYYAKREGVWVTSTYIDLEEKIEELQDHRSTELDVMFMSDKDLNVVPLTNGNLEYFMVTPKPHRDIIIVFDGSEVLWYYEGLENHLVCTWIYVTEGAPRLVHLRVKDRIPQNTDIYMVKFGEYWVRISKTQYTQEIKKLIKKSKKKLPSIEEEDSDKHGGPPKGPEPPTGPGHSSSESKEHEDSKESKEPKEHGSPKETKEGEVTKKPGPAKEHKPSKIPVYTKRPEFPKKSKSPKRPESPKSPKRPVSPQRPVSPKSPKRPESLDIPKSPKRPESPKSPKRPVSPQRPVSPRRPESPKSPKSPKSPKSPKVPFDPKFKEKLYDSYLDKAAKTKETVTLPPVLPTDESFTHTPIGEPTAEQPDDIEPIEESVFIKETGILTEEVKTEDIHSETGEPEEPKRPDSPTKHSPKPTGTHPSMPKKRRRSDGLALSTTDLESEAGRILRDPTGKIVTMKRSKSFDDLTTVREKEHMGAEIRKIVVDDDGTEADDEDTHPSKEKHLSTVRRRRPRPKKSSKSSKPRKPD
UniProt F1MVN9: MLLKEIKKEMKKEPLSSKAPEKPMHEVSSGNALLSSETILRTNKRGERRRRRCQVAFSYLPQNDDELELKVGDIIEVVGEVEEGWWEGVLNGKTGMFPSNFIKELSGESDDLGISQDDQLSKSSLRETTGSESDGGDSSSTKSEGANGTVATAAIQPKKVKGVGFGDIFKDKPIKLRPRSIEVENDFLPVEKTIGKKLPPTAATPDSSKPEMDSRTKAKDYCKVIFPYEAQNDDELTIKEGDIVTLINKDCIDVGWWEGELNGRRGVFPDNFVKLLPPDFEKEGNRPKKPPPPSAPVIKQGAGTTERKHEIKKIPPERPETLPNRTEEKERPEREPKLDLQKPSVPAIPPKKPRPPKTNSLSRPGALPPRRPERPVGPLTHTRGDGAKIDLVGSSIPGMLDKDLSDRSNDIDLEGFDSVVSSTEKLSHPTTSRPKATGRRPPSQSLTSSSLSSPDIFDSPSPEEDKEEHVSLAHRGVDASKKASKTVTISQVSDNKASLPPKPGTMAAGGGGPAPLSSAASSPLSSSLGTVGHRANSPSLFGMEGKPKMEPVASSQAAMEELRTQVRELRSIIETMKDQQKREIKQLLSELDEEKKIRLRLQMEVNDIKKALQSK
UniProt E1BGU2: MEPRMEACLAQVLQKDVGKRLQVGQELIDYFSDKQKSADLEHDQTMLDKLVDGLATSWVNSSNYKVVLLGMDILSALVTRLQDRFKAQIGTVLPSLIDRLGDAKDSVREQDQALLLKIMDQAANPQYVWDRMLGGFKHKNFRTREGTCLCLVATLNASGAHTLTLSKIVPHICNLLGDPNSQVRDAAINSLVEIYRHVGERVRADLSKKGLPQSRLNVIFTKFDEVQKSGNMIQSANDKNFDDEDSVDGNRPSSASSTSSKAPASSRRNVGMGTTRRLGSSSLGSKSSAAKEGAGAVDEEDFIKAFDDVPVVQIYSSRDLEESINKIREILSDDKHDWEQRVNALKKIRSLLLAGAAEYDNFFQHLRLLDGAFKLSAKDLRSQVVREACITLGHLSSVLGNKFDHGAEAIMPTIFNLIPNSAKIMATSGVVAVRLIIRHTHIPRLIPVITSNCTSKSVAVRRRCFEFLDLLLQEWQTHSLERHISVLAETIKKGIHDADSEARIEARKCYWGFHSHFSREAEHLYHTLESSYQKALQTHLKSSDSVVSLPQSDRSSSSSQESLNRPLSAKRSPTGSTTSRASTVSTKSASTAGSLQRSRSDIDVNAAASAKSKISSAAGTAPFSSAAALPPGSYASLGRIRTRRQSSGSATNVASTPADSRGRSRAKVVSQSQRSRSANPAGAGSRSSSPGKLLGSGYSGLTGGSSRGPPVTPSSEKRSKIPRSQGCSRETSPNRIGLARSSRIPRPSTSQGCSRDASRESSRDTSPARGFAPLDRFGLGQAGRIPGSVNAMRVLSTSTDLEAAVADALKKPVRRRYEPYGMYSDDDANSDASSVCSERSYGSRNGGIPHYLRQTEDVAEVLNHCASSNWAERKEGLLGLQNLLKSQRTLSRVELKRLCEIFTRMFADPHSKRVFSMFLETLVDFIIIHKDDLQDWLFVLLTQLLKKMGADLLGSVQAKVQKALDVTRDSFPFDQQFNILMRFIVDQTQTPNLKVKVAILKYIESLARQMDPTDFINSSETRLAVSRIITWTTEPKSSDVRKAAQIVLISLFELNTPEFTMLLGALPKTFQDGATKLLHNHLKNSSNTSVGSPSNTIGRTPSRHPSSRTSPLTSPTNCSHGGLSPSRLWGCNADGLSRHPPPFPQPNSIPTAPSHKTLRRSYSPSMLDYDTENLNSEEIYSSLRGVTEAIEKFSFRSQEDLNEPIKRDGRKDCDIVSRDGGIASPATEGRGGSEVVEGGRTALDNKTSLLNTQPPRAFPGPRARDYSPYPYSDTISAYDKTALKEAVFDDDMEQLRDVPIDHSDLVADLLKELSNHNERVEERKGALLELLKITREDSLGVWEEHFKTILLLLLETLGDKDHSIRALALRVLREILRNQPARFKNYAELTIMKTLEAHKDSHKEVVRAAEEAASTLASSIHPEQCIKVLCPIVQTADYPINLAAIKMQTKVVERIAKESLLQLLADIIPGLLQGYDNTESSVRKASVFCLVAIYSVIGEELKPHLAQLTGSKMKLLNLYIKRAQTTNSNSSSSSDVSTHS

How the values were obtained:
[1] = molecular target: T. annulata major schizont surface protein p104 (TA08425) (Theileria annulata) (UniProt Q4U9M9); assay: proximity ligation; Duolink in situ proximity ligation in fixed TaC12 cells with pairs of primary antibodies; signal when two proteins are less than 40 nm apart; negative controls BoMac cells and single primary antibodies
[2] = molecular target: SH3 domain‐containing kinase‐binding protein 1 (CIN85) (bovine (endogenous in TaC12)) (UniProt F1MVN9); assay: co-IP; endogenous TaMISHIP or CIN85 from TaC12 lysate (modified RIPA buffer) with rat antisera overnight at 4 °C, protein L Dynabeads 6 hr; controls rat IgG and anti‐TaMISHIP IP from BoMac lysate; Western blot

Row | Substance | binding [1] | binding [2]
1 | CLASP1 (from UniProt E1BGU2 1-1540) | binds | 
2 | T. annulata major schizont surface protein p104 (TA08425) (from UniProt Q4U9M9 20-873) |  | no binding
